Test results: US20140031234A1 (published 2014)
No constants are given. Whether binding was seen depends on the method and setting. For some assays here: Binding seen in cells or lysates may run through a third protein. Some binding calls cover weakened binding; strength is not graded here. For some assays here: Sequences can lack the tags named with a protein.

Tests used:
[1] = target: NPR1 BTB/POZ fused to the VP16 transactivation domain (Arabidopsis thaliana) (UniProt P93002); assay: plant two-hybrid in Arabidopsis leaves, with and without SA
[2] = target: Δ513 of NPR1 fused to the VP16 transactivation domain (Arabidopsis thaliana) (UniProt P93002); assay: plant two-hybrid in Arabidopsis leaves, reporter mRNA by qPCR, no SA
[3] = target: Δ513 of NPR1 fused to the VP16 transactivation domain (Arabidopsis thaliana) (UniProt P93002); assay: plant two-hybrid in Arabidopsis leaves, no SA (figure legend)
[4] = target: Δ513 of NPR1 (C-terminal transactivation domain) fused to the HA-Tag (Arabidopsis thaliana) (UniProt P93002); assay: pull-down, BTB/POZ-Strep on StrepTactin solid phase, HA-Δ513 detected by immunoblot
[5] = target: T1, Strep-tagged NPR1 (full length) (Arabidopsis thaliana), P93002; assay: Sephacryl S300 gel filtration with immunoblot of the fractions; self-association (void-volume oligomer without SA, dimer with 1 mM SA); settings: remark: other sources report otherwise
T1 chain: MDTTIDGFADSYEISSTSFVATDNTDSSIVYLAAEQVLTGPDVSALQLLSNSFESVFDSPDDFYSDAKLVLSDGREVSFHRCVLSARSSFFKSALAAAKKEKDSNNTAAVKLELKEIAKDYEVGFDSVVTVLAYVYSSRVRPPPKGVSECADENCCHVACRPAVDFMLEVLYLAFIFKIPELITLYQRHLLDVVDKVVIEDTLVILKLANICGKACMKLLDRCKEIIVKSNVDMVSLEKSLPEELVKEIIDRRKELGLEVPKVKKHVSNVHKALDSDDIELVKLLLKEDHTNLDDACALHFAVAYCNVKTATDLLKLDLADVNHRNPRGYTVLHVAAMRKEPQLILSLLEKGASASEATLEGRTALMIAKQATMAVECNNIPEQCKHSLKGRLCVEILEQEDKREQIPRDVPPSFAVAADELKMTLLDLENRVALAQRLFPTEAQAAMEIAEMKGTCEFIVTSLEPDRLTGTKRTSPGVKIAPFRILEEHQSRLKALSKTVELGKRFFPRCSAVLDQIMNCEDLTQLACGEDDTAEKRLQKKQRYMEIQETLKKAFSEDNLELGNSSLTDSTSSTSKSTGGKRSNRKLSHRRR

With “NPR1 BTB/POZ fused to the Gal4 DNA-binding domain (from UniProt P04386 1-147; P93002 1-190)” the binding [1] was “binds”, the binding [2] was “binds” and the binding [3] was “binds”.

With “BTB/POZ (amino acids 1-190 of NPR1) fused to the Strep-Tag (from UniProt P93002 1-190)” the binding [4] was “binds”.

B1: Strep-tagged NPR1 (full length), P93002 1-593 (receptor, Arabidopsis thaliana, UniProt P93002 1-593, looked up, not shown: small tags and cut ends)
chain: MDTTIDGFADSYEISSTSFVATDNTDSSIVYLAAEQVLTGPDVSALQLLSNSFESVFDSPDDFYSDAKLVLSDGREVSFHRCVLSARSSFFKSALAAAKKEKDSNNTAAVKLELKEIAKDYEVGFDSVVTVLAYVYSSRVRPPPKGVSECADENCCHVACRPAVDFMLEVLYLAFIFKIPELITLYQRHLLDVVDKVVIEDTLVILKLANICGKACMKLLDRCKEIIVKSNVDMVSLEKSLPEELVKEIIDRRKELGLEVPKVKKHVSNVHKALDSDDIELVKLLLKEDHTNLDDACALHFAVAYCNVKTATDLLKLDLADVNHRNPRGYTVLHVAAMRKEPQLILSLLEKGASASEATLEGRTALMIAKQATMAVECNNIPEQCKHSLKGRLCVEILEQEDKREQIPRDVPPSFAVAADELKMTLLDLENRVALAQRLFPTEAQAAMEIAEMKGTCEFIVTSLEPDRLTGTKRTSPGVKIAPFRILEEHQSRLKALSKTVELGKRFFPRCSAVLDQIMNCEDLTQLACGEDDTAEKRLQKKQRYMEIQETLKKAFSEDNLELGNSSLTDSTSSTSKSTGGKRSNRKLSHRRR
With B1 the binding [5] was “binds”.
